Results: PMC4720877
No constants are given. Whether binding was seen depends on the method and setting. For some of these results: In cells and extracts the contact can be indirect. Some binding calls cover weakened binding; strength is not graded here.

Chains of the proteins cited; added tags and fusions are not shown.
UniProt O00629: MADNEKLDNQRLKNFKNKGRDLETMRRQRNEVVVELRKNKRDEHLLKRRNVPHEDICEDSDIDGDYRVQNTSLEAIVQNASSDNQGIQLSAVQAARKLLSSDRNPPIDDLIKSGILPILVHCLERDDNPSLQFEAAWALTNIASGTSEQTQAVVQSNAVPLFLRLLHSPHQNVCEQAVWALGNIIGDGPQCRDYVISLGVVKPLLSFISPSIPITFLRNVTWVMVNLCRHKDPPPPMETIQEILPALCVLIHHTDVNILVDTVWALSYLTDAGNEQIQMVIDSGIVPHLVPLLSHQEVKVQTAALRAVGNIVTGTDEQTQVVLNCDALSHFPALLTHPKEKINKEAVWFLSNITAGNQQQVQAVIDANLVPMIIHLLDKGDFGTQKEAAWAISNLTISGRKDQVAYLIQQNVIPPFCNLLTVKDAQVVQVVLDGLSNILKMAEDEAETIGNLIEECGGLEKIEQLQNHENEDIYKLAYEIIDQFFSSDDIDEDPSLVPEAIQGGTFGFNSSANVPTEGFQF
UniProt O14980: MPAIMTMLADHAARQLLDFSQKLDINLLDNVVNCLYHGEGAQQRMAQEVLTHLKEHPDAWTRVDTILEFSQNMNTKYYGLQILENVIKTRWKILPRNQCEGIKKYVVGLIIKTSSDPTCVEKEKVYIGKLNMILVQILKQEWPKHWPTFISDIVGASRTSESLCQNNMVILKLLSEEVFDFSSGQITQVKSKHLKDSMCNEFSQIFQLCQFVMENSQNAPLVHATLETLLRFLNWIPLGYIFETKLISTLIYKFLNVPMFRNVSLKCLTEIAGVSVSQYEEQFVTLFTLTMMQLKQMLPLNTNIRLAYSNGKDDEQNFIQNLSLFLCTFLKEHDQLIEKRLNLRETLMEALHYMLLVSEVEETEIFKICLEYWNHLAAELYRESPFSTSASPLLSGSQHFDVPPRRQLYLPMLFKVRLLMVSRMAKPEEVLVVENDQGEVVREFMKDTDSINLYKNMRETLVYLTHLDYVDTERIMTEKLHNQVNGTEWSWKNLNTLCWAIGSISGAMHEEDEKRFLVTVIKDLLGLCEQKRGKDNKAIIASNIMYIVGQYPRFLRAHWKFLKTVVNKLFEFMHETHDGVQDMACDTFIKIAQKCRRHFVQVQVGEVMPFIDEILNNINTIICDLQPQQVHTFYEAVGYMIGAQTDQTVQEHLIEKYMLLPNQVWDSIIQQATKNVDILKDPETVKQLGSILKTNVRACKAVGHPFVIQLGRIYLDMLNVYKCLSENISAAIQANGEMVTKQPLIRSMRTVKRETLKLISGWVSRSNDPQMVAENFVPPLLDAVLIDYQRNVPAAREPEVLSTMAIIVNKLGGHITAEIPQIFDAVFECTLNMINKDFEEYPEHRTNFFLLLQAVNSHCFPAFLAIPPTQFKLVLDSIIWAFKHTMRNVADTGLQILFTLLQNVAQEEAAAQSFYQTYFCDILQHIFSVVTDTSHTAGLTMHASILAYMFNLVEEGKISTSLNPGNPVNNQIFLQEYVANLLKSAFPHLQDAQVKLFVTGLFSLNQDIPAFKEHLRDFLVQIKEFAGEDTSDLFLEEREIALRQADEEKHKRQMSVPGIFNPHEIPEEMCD
UniProt P52294: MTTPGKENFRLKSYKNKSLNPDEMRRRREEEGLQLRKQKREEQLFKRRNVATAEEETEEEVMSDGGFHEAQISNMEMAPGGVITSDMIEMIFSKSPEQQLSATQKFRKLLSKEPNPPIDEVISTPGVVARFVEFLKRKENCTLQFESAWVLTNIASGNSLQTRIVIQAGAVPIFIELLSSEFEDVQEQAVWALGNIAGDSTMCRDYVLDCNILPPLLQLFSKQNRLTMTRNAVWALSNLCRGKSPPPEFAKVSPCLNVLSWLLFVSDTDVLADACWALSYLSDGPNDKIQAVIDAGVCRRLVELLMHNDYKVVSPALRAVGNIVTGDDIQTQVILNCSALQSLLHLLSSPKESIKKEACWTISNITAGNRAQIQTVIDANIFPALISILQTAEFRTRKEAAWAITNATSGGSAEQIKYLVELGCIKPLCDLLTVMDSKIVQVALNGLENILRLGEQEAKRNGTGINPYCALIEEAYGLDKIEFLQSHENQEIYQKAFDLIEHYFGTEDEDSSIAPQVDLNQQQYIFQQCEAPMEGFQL

T1: TG2 (endogenous, JHH-7 cells) (human (endogenous in JHH-7)) (UniProt P21980)
T1 sequence: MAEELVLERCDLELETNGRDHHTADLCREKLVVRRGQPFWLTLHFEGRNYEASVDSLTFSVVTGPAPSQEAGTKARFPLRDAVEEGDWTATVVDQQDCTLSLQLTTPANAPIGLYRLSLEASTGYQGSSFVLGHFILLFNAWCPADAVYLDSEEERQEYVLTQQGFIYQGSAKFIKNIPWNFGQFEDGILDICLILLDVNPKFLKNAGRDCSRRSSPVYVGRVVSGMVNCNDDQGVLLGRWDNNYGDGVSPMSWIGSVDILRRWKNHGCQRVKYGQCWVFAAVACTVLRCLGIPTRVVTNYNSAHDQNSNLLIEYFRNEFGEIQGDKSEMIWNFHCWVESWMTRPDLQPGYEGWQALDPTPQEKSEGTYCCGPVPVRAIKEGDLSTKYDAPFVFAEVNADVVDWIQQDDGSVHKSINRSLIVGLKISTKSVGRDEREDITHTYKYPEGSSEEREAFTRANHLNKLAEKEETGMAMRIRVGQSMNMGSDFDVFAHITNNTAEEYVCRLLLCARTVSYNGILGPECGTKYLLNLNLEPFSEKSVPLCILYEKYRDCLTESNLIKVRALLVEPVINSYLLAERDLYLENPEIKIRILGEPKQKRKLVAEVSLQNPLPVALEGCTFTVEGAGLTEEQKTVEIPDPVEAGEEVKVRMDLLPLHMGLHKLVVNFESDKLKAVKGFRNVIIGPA


Key:
[1] = target: T1, TG2 (endogenous, JHH-7 cells) (human (endogenous in JHH-7)); test: proximity ligation; Duolink in situ PLA in fixed, permeabilised JHH-7 cells treated with 0.1% EtOH or 10 μM ACR (3, 5, 7 h); mouse anti-TG2 CUB7402 with rabbit anti-KPNA4, anti-SRP-1 or anti-importin-β
[2] = target: T1, TG2 (endogenous, JHH-7 cells) (human (endogenous in JHH-7)); test: co-IP; JHH-7 cells treated 5 h with 0.1% EtOH or 10 μM ACR; lysis in Tris pH 7.4, 1% Triton X-100; 500 μg lysate protein with Dynabeads protein G carrying anti-TG2 CUB7402, 15 min, room temperature; importin-α3 and -β detected by western blot (1.9- and 1.3-fold more after ACR)
[3] = target: complex of GST-tagged importin-α3 and HA-tagged importin-β (UniProt O00629); test: pull-down; competition: GST-importin-α3/HA-importin-β complex on glutathione sepharose 4B beads, recombinant human TG2 (about 1.5 pmol), 1 h, room temperature, with peptide SV40 NLS, TG2 NES or TG2 NLS added; TG2 detected by western blot; both purified
GST-tagged exportin-1 = GST-tagged exportin-1 (UniProt O14980); test: pull-down; GST-tagged exportin-1 on glutathione sepharose 4B beads (six times molar excess), recombinant human TG2 (about 1.5 pmol), 1 h, room temperature, with or without 0.1% EtOH, 1 mM ACR, 10 μg/ml LMB; TG2 detected by western blot; both purified
[4] = target: complex of GST-tagged importin-α5 and HA-tagged importin-β (UniProt P52294); test: pull-down; GST-tagged importins or GST-importin-α/HA-importin-β complexes on glutathione sepharose 4B beads (six times molar excess); 100 ng (about 1.5 pmol) recombinant human TG2 added, 1 h, room temperature, Tris buffer pH 7.6, 150 mM NaCl; TG2 detected by western blot; some samples with Z-DON, 500 μM ATP, 0.1% EtOH or 20 μM ACR; both purified
[5] = target: complex of GST-tagged importin-α3 and HA-tagged importin-β (UniProt O00629); test: as above
GST-tagged importin-α3 = GST-tagged importin-α3 (UniProt O00629); test: as above
GST-tagged importin-α5 = GST-tagged importin-α5 (UniProt P52294); test: as above
GST-tagged importin-β = GST-tagged importin-β (UniProt Q14974); test: as above

Row | binding [1] | binding [2] | binding [3] | Molecule | also measured
1 | binds | – | – | importin-α5 (endogenous, JHH-7 cells) (from UniProt P52294 1-538) | –
2 | binds | binds | – | importin-α3 (endogenous, JHH-7 cells) (from UniProt O00629 1-521) | –
3 | binds | binds | – | importin-β (endogenous, JHH-7 cells) (from UniProt Q14974 1-876) | –
4 | – | – | binds | AEKEETGMAMRIRV [14-amino acid TG2 NLS peptide …] | –
5 | – | – | binds | Recombinant human TG2 (transglutaminase 2) (enzyme, UniProt P21980 1-687) MAEELVLERCDLELETNGRDHHTADLCREKLVVRRGQPFWLTLHFEGRNYEASVDSLTFSVVTGPAPSQEAGTKARFPLRDAVEEGDWTATVVDQQDCTLSLQLTTPANAPIGLYRLSLEASTGYQGSSFVLGHFILLFNAWCPADAVYLDSEEERQEYVLTQQGFIYQGSAKFIKNIPWNFGQFEDGILDICLILLDVNPKFLKNAGRDCSRRSSPVYVGRVVSGMVNCNDDQGVLLGRWDNNYGDGVSPMSWIGSVDILRRWKNHGCQRVKYGQCWVFAAVACTVLRCLGIPTRVVTNYNSAHDQNSNLLIEYFRNEFGEIQGDKSEMIWNFHCWVESWMTRPDLQPGYEGWQALDPTPQEKSEGTYCCGPVPVRAIKEGDLSTKYDAPFVFAEVNADVVDWIQQDDGSVHKSINRSLIVGLKISTKSVGRDEREDITHTYKYPEGSSEEREAFTRANHLNKLAEKEETGMAMRIRVGQSMNMGSDFDVFAHITNNTAEEYVCRLLLCARTVSYNGILGPECGTKYLLNLNLEPFSEKSVPLCILYEKYRDCLTESNLIKVRALLVEPVINSYLLAERDLYLENPEIKIRILGEPKQKRKLVAEVSLQNPLPVALEGCTFTVEGAGLTEEQKTVEIPDPVEAGEEVKVRMDLLPLHMGLHKLVVNFESDKLKAVKGFRNVIIGPA | binding (GST-tagged exportin-1): binds; binding [4]: binds; binding [5]: binds; binding (GST-tagged importin-α3): binds; binding (GST-tagged importin-α5): binds; binding (GST-tagged importin-β): binds
